# In PubChem BioAssay AID1466 (National Center for Advancing Translational Sciences (NCATS), 2008):
# Out of some 200,000 compounds screened, about 10 (0.005%) were called active. These results got no clear call from the source, so the numbers are uncertain. Calls come from the whole dose curve; as a rule, active = well fitted inhibition curve with a large enough effect; inconclusive = small, poorly fitted or top-dose-only effect, or effect the other way, or another doubt; inactive = no such curve, though single readings can be large or run the other way. Some tests of the compounds listed are not included; inactive here does not mean inactive elsewhere.
# Target: Lysosomal alpha-glucosidase (Homo sapiens) (UniProt P10253)
# Experiment: qHTS Assay for Inhibitors of Human alpha-Glucosidase as a Potential Chaperone Treatment of Pompe Disease
# Conditions: purified human GAA, 4-MU-alpha-glucoside fluorescence
# Potency is the fitted concentration of half-maximal effect.
row,Structure (SMILES),Potency
1,COc1cccc(C(=O)NCC2(N3CCCCC3)CCCCC2)c1,inconclusive: 158 nM
